Data taken from PubChem BioAssay AID2205 (University of Pittsburgh Molecular Library Screening Center, 2009).
The other results are listed elsewhere or left out.

Assay: microtubule stabilizers in HeLa cells, primary screen, imaging, high-content imaging (AID 2205);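 on toxicity: 0% = mean cell density of plate MIN control wells and 100% = no cells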
Details: HeLa tubulin immunostaining HCS, 24 h, at 10 µM; % Hoechst-high responders: measured here: nuclear condensation Hoechst responders, stronger effect = higher value, share of cells brighter than vehicle mean+2SD; toxicity: measured here: cytotoxicity by cell density

| SMILES | % Hoechst-high responders [%] | toxicity [%] |
| --- | --- | --- |
| CCOP1(=S)c2c(C)nn(CCC#N)c2N=C(c2ccccc2F)N1C (stereo not drawn) | 2.3 | 1.25 |
| CCOP1(=S)c2c(C)nn(CCC#N)c2N=C(c2ccc(F)cc2)N1C (stereo not drawn) | 2.52 | 11.7 |
| CC1=NCCc2c1[nH]c1ccccc21.O=[N+]([O-])c1cc([N+](=O)[O-])c(O)c([N+](=O)[O-])c1 | 1.72 | 1.65 |
| O=[N+]([O-])c1ccc2c(c1)nnn2O | 2.09 | 5.66 |
| COc1cc(C(=O)NCC2(N3CCOCC3)CCCCC2)cc(Cl)c1OC(C)C | 1.37 | 7.89 |
| Cc1cc(C)cc(OP(C)(=O)Nc2ccc(C)cc2C)c1 (stereo not drawn) | 2.18 | 11.1 |
| Cc1cccc(OCC(=O)OC2CN3CCC2CC3)c1 (stereo not drawn) | 1.51 | 5.55 |
| CCOC(=O)c1ccc(NP(C)(=O)Oc2cc(C)cc(C)c2)cc1 (stereo not drawn) | 20.4 | 23.7 |
| Cc1ccc(NCCc2c([N+](=O)[O-])cc([N+](=O)[O-])cc2[N+](=O)[O-])cc1 | 2.64 | 4.77 |
| CP(=O)(Nc1cccc(Br)c1)Oc1ccccc1 (stereo not drawn) | 2.12 | 0.771 |
| Cc1cc(C)cc(OP(C)(=O)Nc2ccccn2)c1 (stereo not drawn) | 2.32 | 5.22 |
| Cc1ccc(C)c(NP(C)(=O)Oc2ccccc2)c1 (stereo not drawn) | 0.96 | 4.24 |
| CCOP(=O)(Nc1cccc2ccccc12)OCC | 1.42 | 5.11 |
| Cc1c2c(nc3ccccc13)SC(C(Cl)Cl)C2 (stereo not drawn) | 1.52 | 0.0746 |
| CCN(CC)CCCOC(=O)C(O)(c1ccccc1)c1ccccc1 | 2.23 | 9.82 |
| Cc1cc(=O)[nH]c(N[N+](=O)[O-])n1 | 2.15 | 8.71 |
| O=C(OC1CN2CCC1CC2)C12CC3CC(CC(C3)C1)C2 (stereo not drawn) | 1.14 | 2.92 |
| COc1ccc2nc(NP(=O)(c3ccccc3)c3ccccc3)sc2c1 | 1.34 | 5.87 |
| COc1ccc(N/C(=N/P(=O)(N2CCOCC2)N2CCOCC2)N2CCOCC2)cc1 | 1.84 | 10.7 |
| Cc1cccc(C)c1OP(C)(N)=O (stereo not drawn) | 3.86 | 8.6 |
| CC(C)(C)c1ccc(OP(C)(=O)Nc2ccc(SC(F)(F)F)cc2)cc1 (stereo not drawn) | 2.79 | 7.07 |
| Cc1ccc2nc3c(c(C)c2c1)CC(C(Cl)Cl)S3 (stereo not drawn) | 2.85 | 8.99 |
| O=[N+]([O-])c1ccc2c(c1)C=Nc1ccccc1O2 | 1.56 | 4.6 |
| ClCCSc1nnc(-c2cccnc2)o1 | 2.24 | 7.98 |
| CCOC(=O)c1ccc(NP(C)(=O)Oc2ccccc2)cc1 (stereo not drawn) | 1.67 | 0.847 |

| SMILES | % Hoechst-high responders [%] | toxicity [%] |
| --- | --- | --- |
| Cc1ccc(NP(C)(=O)Oc2ccccc2)c(C)c1 (stereo not drawn) | 1.97 | 2.63 |
| COc1ccccc1OP(C)(=O)Nc1ccc(C)cc1 (stereo not drawn) | 1.63 | 6.98 |
| O=[N+]([O-])c1cc([N+](=O)[O-])c(-c2ccn[nH]2)s1 | 2.55 | 7.98 |
| COc1ccc(OP(C)(=O)Nc2cccc(F)c2)cc1 (stereo not drawn) | 1.44 | 10.1 |
| CCN(CC)C(=S)SC(NC=O)C(Cl)(Cl)Cl (stereo not drawn) | 1.73 | 8.85 |
| COc1ccccc1OP(C)(=O)Nc1cc(Cl)ccc1C (stereo not drawn) | 1.78 | 9.07 |
| CC(C)NC(=O)NP(=O)(Oc1ccccc1)Oc1ccccc1 | 2.18 | 3.82 |
| Cc1cc(C)cc(OP(C)(N)=O)c1 (stereo not drawn) | 2.12 | 6.8 |
| Cc1cc(SC(NC(=O)c2ccccc2)C(Cl)(Cl)Cl)nc(C(C)C)n1 (stereo not drawn) | 2.28 | 6.61 |
| CP(=S)(Nn1cnnc1)Oc1ccccc1 (stereo not drawn) | 1.25 | 5.03 |
| COc1ccccc1OP(C)(=O)Nc1ccccc1 (stereo not drawn) | 1.08 | 1.9 |
| O=P(Nc1ccccn1)(c1cccc2ccccc12)c1cccc2ccccc12 | 3.27 | 6.82 |
| Cc1cc(SC(NC=O)C(Cl)(Cl)Cl)ncn1 (stereo not drawn) | 2.51 | 7.13 |
| CP(=O)(Nc1ccccc1Br)Oc1ccccc1 (stereo not drawn) | 2.02 | 8.67 |
| CP(=O)(Oc1ccccc1)OC(c1ccccc1)C(F)(F)F (stereo not drawn) | 3.04 | 7.87 |
| Cc1cccc(C)c1OP(C)(=O)Nc1ccc(SC(F)(F)F)cc1 (stereo not drawn) | 2.11 | 4.09 |
| COP1(=S)c2c(C)nn(CCC#N)c2N=C(c2ccc(F)cc2)N1C (stereo not drawn) | 2.75 | 4.17 |
| Cc1cc(C)cc(OP(C)(=O)Nc2ccc(SC(F)(F)F)cc2)c1 (stereo not drawn) | 2.74 | 5.99 |
| O=C(COc1ccccc1)OC1CN2CCC1CC2 (stereo not drawn) | 5.78 | 8.47 |
| CP(=O)(NC(=O)Nc1ccccc1)Oc1ccccc1 (stereo not drawn) | 3.45 | 4.85 |
| CCOP(C)(=S)SCC(=O)NC(C)C(=O)O (stereo not drawn) | 1.08 | 5.34 |
| CCOC(=O)c1ccc(NP(C)(=O)Oc2ccc(OC)cc2)cc1 (stereo not drawn) | 3.44 | 7.36 |
| CCC(C)N(CC(C)C)C(=S)SC(NC(C)=O)C(Cl)(Cl)Cl (stereo not drawn) | 0.874 | 0.21 |
| CP(=O)(Nc1ccccn1)Oc1ccc(Cl)cc1 (stereo not drawn) | 1.1 | 4.02 |
